Measured values reported in PMC3955662.
Results are given in words; binding and its absence hold for the method and conditions named. Binding seen in cells or lysates may run through a third protein. Some results given as binding are weak or reduced against the parent protein; the word gives no strength.

The chains behind the UniProt entries cited, without tags or fusion partners.
UniProt P31749: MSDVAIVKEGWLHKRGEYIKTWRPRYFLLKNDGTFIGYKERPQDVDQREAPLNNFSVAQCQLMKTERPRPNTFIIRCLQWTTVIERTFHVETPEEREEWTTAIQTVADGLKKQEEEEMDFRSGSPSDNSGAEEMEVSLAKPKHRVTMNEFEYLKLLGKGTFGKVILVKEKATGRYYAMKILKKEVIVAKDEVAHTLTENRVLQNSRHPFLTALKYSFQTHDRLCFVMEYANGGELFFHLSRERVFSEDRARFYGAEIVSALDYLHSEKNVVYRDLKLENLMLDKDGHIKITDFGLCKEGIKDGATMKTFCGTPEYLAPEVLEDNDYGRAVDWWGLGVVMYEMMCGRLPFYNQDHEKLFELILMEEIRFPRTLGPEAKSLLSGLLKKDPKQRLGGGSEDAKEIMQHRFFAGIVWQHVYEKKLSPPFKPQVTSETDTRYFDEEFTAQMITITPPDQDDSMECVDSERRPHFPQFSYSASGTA

T1: NADPH oxidase isoform 4 (Nox4) (human (endogenous in THP1)) (UniProt Q9NPH5)
T1 sequence: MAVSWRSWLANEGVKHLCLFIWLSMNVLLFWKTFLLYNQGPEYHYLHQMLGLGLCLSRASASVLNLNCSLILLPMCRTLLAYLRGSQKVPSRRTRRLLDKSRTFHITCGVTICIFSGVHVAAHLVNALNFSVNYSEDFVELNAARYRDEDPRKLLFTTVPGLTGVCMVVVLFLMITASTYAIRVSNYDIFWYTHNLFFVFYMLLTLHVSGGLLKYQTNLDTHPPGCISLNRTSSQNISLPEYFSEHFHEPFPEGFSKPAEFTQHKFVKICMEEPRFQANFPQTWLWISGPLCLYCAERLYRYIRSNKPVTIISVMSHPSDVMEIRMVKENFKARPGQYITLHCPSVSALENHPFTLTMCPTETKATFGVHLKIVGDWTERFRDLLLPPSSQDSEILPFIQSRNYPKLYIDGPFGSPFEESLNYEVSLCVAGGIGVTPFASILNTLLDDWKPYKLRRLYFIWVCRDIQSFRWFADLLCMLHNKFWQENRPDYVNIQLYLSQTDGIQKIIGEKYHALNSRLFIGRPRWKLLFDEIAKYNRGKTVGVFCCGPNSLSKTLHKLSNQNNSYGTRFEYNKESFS


biological target: T1, NADPH oxidase isoform 4 (Nox4) (human (endogenous in THP1)); assay: co-IP; precleared nuclear lysates of THP1 (AT lysis buffer, 1% Nonidet P-40, 150 mM NaCl) incubated 4 hours with 3 ug anti-Nox4, protein A/G agarose at 4°C, Western blot of the precipitate; preclearing fraction as control

binding | Molecule
binds | Akt1 (from UniProt P31749 1-480) (enzyme)
binds | Matrin3 (protein, UniProt P43243 1-847) MSKSFQQSSLSRDSQGHGRDLSAAGIGLLAAATQSLSMPASLGRMNQGTARLASLMNLGMSSSLNQQGAHSALSSASTSSHNLQSIFNIGSRGPLPLSSQHRGDADQASNILASFGLSARDLDELSRYPEDKITPENLPQILLQLKRRRTEEGPTLSYGRDGRSATREPPYRVPRDDWEEKRHFRRDSFDDRGPSLNPVLDYDHGSRSQESGYYDRMDYEDDRLRDGERCRDDSFFGETSHNYHKFDSEYERMGRGPGPLQERSLFEKKRGAPPSSNIEDFHGLLPKGYPHLCSICDLPVHSNKEWSQHINGASHSRRCQLLLEIYPEWNPDNDTGHTMGDPFMLQQSTNPAPGILGPPPPSFHLGGPAVGPRGNLGAGNGNLQGPRHMQKGRVETSRVVHIMDFQRGKNLRYQLLQLVEPFGVISNHLILNKINEAFIEMATTEDAQAAVDYYTTTPALVFGKPVRVHLSQKYKRIKKPEGKPDQKFDQKQELGRVIHLSNLPHSGYSDSAVLKLAEPYGKIKNYILMRMKSQAFIEMETREDAMAMVDHCLKKALWFQGRCVKVDLSEKYKKLVLRIPNRGIDLLKKDKSRKRSYSPDGKESPSDKKSKTDGSQKTESSTEGKEQEEKSGEDGEKDTKDDQTEQEPNMLLESEDELLVDEEEAAALLESGSSVGDETDLANLGDVASDGKKEPSDKAVKKDGSASAAAKKKLKKVDKIEELDQENEAALENGIKNEENTEPGAESSENADDPNKDTSENADGQSDENKDDYTIPDEYRIGPYQPNVPVGIDYVIPKTGFYCKLCSLFYTNEEVAKNTHCSSLPHYQKLKKFLNKLAEERRQKKET
binds | p22phox (protein, UniProt P13498 1-195) MGQIEWAMWANEQALASGLILITGGIVATAGRFTQWYFGAYSIVAGVFVCLLEYPRGKRKKGSTMERWGQKYMTAVVKLFGPFTRNYYVRAVLHLLLSVPAGFLLATILGTACLAIASGIYLLAAVRGEQWTPIEPKPRERPQIGGTIKQPPSNPPPRPPAEARKKPSEEEAAVAAGGPPGGPQVNPIPVTDEVV
binds | sc-35 (protein, UniProt Q01130 1-221) MSYGRPPPDVEGMTSLKVDNLTYRTSPDTLRRVFEKYGRVGDVYIPRDRYTKESRGFAFVRFHDKRDAEDAMDAMDGAVLDGRELRVQMARYGRPPDSHHSRRGPPPRRYGGGGYGRRSRSPRRRRRSRSRSRSRSRSRSRSRYSRSKSRSRTRSRSRSTSKSRSARRSKSKSSSVSRSRSRSRSRSRSRSPPPVSKRESKSRSRSKSPPKSPEEEGAVSS
